Experimental data: paper PMC7480864

Target: T1, Tagged SHMT2 (mouse) (UniProt Q9CZN7)
T1 sequence: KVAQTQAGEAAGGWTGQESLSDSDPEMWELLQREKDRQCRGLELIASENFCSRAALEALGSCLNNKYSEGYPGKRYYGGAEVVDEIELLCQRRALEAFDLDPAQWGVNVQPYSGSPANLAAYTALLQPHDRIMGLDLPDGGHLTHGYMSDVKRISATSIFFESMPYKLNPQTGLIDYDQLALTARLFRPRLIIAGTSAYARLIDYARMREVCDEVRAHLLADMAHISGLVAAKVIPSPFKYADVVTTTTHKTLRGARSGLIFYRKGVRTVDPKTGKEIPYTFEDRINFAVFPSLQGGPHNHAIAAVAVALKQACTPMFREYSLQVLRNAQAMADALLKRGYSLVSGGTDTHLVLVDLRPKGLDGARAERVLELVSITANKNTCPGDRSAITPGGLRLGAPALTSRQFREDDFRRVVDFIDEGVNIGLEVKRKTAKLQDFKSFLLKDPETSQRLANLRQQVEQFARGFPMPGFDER
Test: co-IP; lysis in NP-40 buffer (1% NP40, 0.5% deoxycholate, 50 mM Tris pH 7.5, 150 mM NaCl); anti-FLAG M2 affinity agarose beads; western blot with antibodies to SHMT2 and ACOT2

binding: binds
Substance: Acyl-coenzyme A thioesterase 2, mitochondrial (human (endogenous in HeLa))

These are yes or no findings as the source states them, for the method shown. Binding seen in cells or lysates may run through a third protein. A result given as binding can be weak or reduced; the word gives no strength. Sequences can lack the tags named with a protein.
